The values below come from patent US20090264345A1 (priority 2006, published 2009).

A short description of this series: peptide synthesis. The settings on record: cyclisation step.

Take cyclo(FLVLL): the cyclisation yield is 65%.
